The supplement of paper PMC4683952
The list shows a part of the results. No stated cut-off is given here; in the data, active = 2 or more and inactive = the rest. Single values are uncertain here, since repeats match poorly.

Test system: Lgr5 (MarsCy1-Lgr5-EGFP, U2OS)
Assay: cell-surface Lgr5 expression (SCi1 fluorescence, background-subtracted) relative to WT DMSO (fold of DMSO control); higher = more Lgr5 at the plasma membrane
Conditions: U2OS MarsCy1-Lgr5-EGFP stable; treatment time: overnight; library: ActiProbe-5K (TimTec); 25 µM

SMILES | cell-surface Lgr5 expression
Clc1ccc(N=Cc2ccc(Br)o2)cc1 | inactive: 1.07
CC1=C(C#N)c2nc(N)c(C#N)c(C)c2/C1=C/c1cccs1 | inactive: 1.55
c1ccc([C@H]2[C@H](C(c3cc(C(F)(F)F)ccc3)=O)N3[C@H]([C@@]2(C#N)C#N)(c2c(C=C3)cccc2))cc1 | inactive: 1.67
O=S(=O)(c1cccc2ccccc12)n1cnc2ccccc21 | inactive: 0.992
Cn1c(=O)c2c(nc(SCC(=O)NC(C)(C)C)n2C)n(C)c1=O | inactive: 1.12
NNc1ccc(OC(F)(F)F)cc1 | inactive: 1.05
C(#N)C(=C1\CCOCC1)/C#N | inactive: 1.31
Cc1cc(/C=N\NC(N)=S)c(C)n1-c1sc2c(c1C#N)CCCC2 | inactive: 1.13
C/C(=N/NC(=O)Cc1cc(=O)[nH][nH]1)c1cccs1 | inactive: 0.982
CCCN1CN(Cc2ccco2)CNC1=S | inactive: 1.26
Nc1ccc(S(=O)(=O)Nc2ccc(S(N)(=O)=O)cc2)cc1 | inactive: 1.11
C/C(=N\NC(=O)c1ccco1)c1ccco1 | inactive: 1.16
CC(=O)N1CCC2(CC1)C1CN(C(C)=O)CC=C1C(C#N)=C(N)C2(C#N)C#N (stereo not given) | inactive: 1.1
Cc1c(-c2ccno2)cnn1C | inactive: 1.22
CC(C)(C)Sc1c(Br)cccc1Br | inactive: 1.02
Oc1cccc2ccc(Cl)nc12 | inactive: 1.12
CN(C)S(=O)(=O)NCc1ccc2c(c1)OCO2 | inactive: 0.939
O=c1nc(N/N=C\c2cccnc2)cn[nH]1 | inactive: 1.3
Cc1cc(C)c2c(O)nn(C(C)C)c2n1 | inactive: 1.27
N#CC1=C(N)Oc2ncnc(O)c2C1c1ccsc1 (stereo not given) | inactive: 1.3
O=[N+]([O-])c1ccc(F)c(C(F)(F)F)c1 | inactive: 1.49
COc1cc2nc(N3CCN(c4nc(N)c5cc(OC)c(OC)cc5n4)CC3)nc(N)c2cc1OC | inactive: 1.69
CC(C)(C)c1cc(CSCc2cc(C(C)(C)C)cc(C(C)(C)C)c2)cc(C(C)(C)C)c1 | inactive: 1.26
N#Cc1c(SCCN2CCCC2)nc2c(c1C(F)(F)F)CCCCC2 | inactive: 1.02
C=CCN(CC=C)S(=O)(=O)c1cc(Cl)ccc1Cl | inactive: 1.12
O=C(Cn1nc([N+](=O)[O-])nc1Br)N1CCOCC1 | inactive: 1.35
O=S(=O)(NCCCn1ccnc1)c1cc(Cl)ccc1Cl | inactive: 1.1

SMILES | cell-surface Lgr5 expression
Cc1cc(C(=O)N/N=C2\CC(=O)CC(C)(C)C2)[nH]n1 | inactive: 1.34
COC(=O)CSc1ncnc2sc3c(c12)CCCC3 | inactive: 0.845
COC(=O)c1ccn([C@H]2CC(=O)[C@@H]3OC[C@H]2O3)n1 | inactive: 1.01
Fc1cnc(Cl)nc1NC1CCCCC1 | inactive: 1.12
O=C1c2ccccc2C(=O)c2c1c(C(=O)N1CCOCC1)c1ccccn21 | inactive: 1.3
[O-][n+]1c2c(nn1-c1ccccc1)/C(=N/O)CCC2 | inactive: 1.26
CSc1ccc(C2C(C#N)=C(N)SC(N)=C2C#N)cc1 | inactive: 1.43
CSc1nc(-c2ccco2)cc(C(F)(F)F)c1C#N | inactive: 1.08
Cc1cc(S(=O)(=O)N2CCOCC2)c(C)s1 | inactive: 1.36
Cn1ncc(Br)c1C(=O)NN | inactive: 0.964
Cl.c1cc2c(cc1C13CC4CC(CC(C4)C1)C3)c1c3n2CCNC3CCC1 (stereo not given) | inactive: 0.732
Cc1cc(C2CC(=O)OC3=C2C(=O)CC(C)(C)C3)c(C)s1 (stereo not given) | inactive: 1.02
Cn1nnnc1SC(c1ccccc1)c1ccccc1 | inactive: 1.16
O=C(NC1CC1)c1scc2c1OCCO2 | inactive: 1.11
COc1cc(OC)c(/C=N\O)cc1Br | inactive: 0.457
Cc1sc(C)c2c1CCCC2=O | inactive: 1.33
CN(C)S(=O)(=O)N1CCN(c2ccc(F)cc2)CC1 | inactive: 1.05
O=C(O)C1CC(=O)N(CC2CCCO2)C1 (stereo not given) | inactive: 1.34
NCCCc1nc2cc(O)ccc2[nH]1 | inactive: 1.23
C1(C[C@H](C(=O)OC)CC([C@](=O)OC)C1)[C@](=O)OC (stereo not given) | inactive: 1.4
NC(=O)CSc1nc2[nH]c(=O)cc(O)c2s1 | inactive: 1.08
COc1cc2c(cc1N)OCO2 | inactive: 1.12
C[C@@H]1CC2(CCCN2)C[C@H]1C.O=C(O)C(=O)O | inactive: 1.14
CC1(C)CNC(=S)NC1 | inactive: 1.07
Br.Nc1ccc(OCCC[n+]2ccc(CCS(=O)(=O)[O-])cc2)cc1 | inactive: 1.04
O=S(=O)(c1ccc(Cl)cc1)N1CCN(c2ccc(N3CCOCC3)nn2)CC1 | inactive: 1.39
S=C(NCC1CCCO1)NC1CCCCC1 (stereo not given) | inactive: 1.19

SMILES | cell-surface Lgr5 expression
Cc1ccsc1C1NC(=O)c2c(sc3c2CCCC3)N1 (stereo not given) | inactive: 0.665
COc1cc(Br)c(-c2c(-c3ccc(Cl)cc3)cn3ccc4cc(OC)c(OC)cc4c23)cc1OC | inactive: 0.998
S=C1NCN(CCc2ccccc2)CN1CCc1ccccc1 | inactive: 1.11
C(/C#N)(C#N)=C\Nc1ncc(cc1)Cl | inactive: 0.939
Cc1cc(N)nn1Cn1nc(C(F)(F)F)cc1C | inactive: 1.2
C/C(CC(C)C)=N\Nc1ccc([N+](=O)[O-])cc1[N+](=O)[O-] | inactive: 1.06
O=c1cc(O)c2sc(SCCN3CCOCC3)nc2[nH]1 | inactive: 1.26
C=CCOc1c(Cl)cc(/C=N/n2nnnc2N)cc1OC | inactive: 1.31
Cc1nc(N(C)N)c(C#N)c(C)c1Cl | inactive: 0.699
Cc1nc2nc(S(N)(=O)=O)nn2c(C)c1C | inactive: 1.18
S=C(Nc1cccnc1)Nc1cc(Cl)c(Cl)cc1Cl | inactive: 0.968
O=C(NC1(C(F)(F)F)N=C2SCCN2C1=O)c1ccco1 (stereo not given) | inactive: 1.11
C(=N/c1cccnc1)/c1c[nH]c2ccccc12 | inactive: 1.1
O=C(O)c1cc2[nH]c(=O)cc(-c3ccco3)n2n1 | inactive: 1.09
CC(O)CN(N)C1=NS(=O)(=O)c2ccccc21 (stereo not given) | inactive: 1.31
Oc1ccc(Cl)cc1-c1cc(C(F)(F)C(F)F)no1 | inactive: 0.778
CC(=O)C1=C(C(=O)O)SC2=C(CCCC2)N1 | inactive: 1.15
CN(C)S(=O)(=O)N1CCN(C2c3ccccc3-c3ccccc32)CC1 | inactive: 1.08
O=[N+]([O-])c1ccc(/C=N\c2ccc(Br)cc2)s1 | inactive: 1.91
CC(C)(C)c1ccc(-c2nnc(S)n2/N=C/c2ccc(C(F)(F)F)cc2)cc1 | inactive: 0.851
CCCCc1nc2c(sc3nc(C)cc(COC)c32)c(=N)o1 | active: 2.2
COc1ccc(C2NCC(CCl)O2)cc1 (stereo not given) | inactive: 0.952
C=CCC1(O)CC(C)(C)NC(C)(C)C1 | inactive: 0.933
COc1ccc(NC(=O)Nc2cccc(Cl)c2)cc1 | inactive: 0.802
O=Cc1c[nH]c2ccc(Cl)cc12 | inactive: 0.853
[O-][S+](CCSc1nnnn1-c1ccccc1)c1ccccc1 (stereo not given) | inactive: 1.22
Cc1c(N2C(=O)C(C)SC23C(=O)Nc2ccccc23)c(=O)n(-c2ccccc2)n1C (stereo not given) | inactive: 1.38

Ordered by count of non-hydrogen atoms (rising): some entries from above.
SMILES | cell-surface Lgr5 expression
C=CCC1(O)CC(C)(C)NC(C)(C)C1 | inactive: 0.933
Cc1cc(N)nn1Cn1nc(C(F)(F)F)cc1C | inactive: 1.2
O=c1cc(O)c2sc(SCCN3CCOCC3)nc2[nH]1 | inactive: 1.26

(more compounds)

SMILES | cell-surface Lgr5 expression
O=S(=O)(c1ccccc1)N1CC2c3ccccc3CCN2C1c1ccccc1 (stereo not given) | inactive: 1.29
CCO[C@H]1C=C[C@@H](OC(C)=O)[C@H](COC(C)=O)O1 | inactive: 1.08
CC(=C/CCC1(C(N(C(O1)=O)CC([O-])=O)(O)C)C)/C (stereo not given) | inactive: 1.16
O=c1[nH]c2ccc(S(=O)(=O)N3CCCC3)cc2s1 | inactive: 1.16
O=c1ccc2nc3ccc(O)cc3oc-2c1 | inactive: 0.816
O=C1COc2ccc(Cl)cc2O1 | inactive: 1.07
Cc1c(-c2cc(C(F)(F)C(F)F)[nH]n2)c(O)c([N+](=O)[O-])c(C)c1[N+](=O)[O-] | inactive: 0.933
Cc1ccsc1/C=N/Nc1nnc(C)c(=O)[nH]1 | inactive: 1.28
CCc1sc(/C=C(\C#N)C(N)=S)cc1[N+](=O)[O-] | inactive: 1.72
Nc1nnc(SC2CCCC2)s1 | inactive: 1.06
Br.Cc1cc(C)c(-c2csc(=N)[nH]2)c(C)c1 | inactive: 0.949
Cn1c(-c2ccco2)nn([C@H]2CC(=O)[C@@H]3OC[C@H]2O3)c1=S | inactive: 1.03
N=c1c2c3c(sc2ncn1N)CCCC3 | inactive: 1.22
N#Cc1cc2c(nc1SC/C=C/CSc1nc3c(cc1C#N)CCC3)CCC2 | inactive: 1.1
CN1CC(C(=O)NC23CC4CC(CC(C4)C2)C3)CC1=O (stereo not given) | inactive: 1.25
CS(=O)(=O)N1CCN(C(=O)C23CC4CC(CC(C4)C2)C3)CC1 | inactive: 1.24
O=c1oc2ccccc2cc1C1=NOC(c2ccc3c(c2)OCO3)C1 (stereo not given) | inactive: 1.26
C=CCNc1sc(C(=O)C23CC4CC(CC(C4)C2)C3)c(N)c1C#N | inactive: 1.53
CC12CCC(=O)N1CCCCN2 (stereo not given) | inactive: 1.17
O=C(CCC(=O)N/N=C/c1ccc([N+](=O)[O-])s1)N/N=C\c1ccc([N+](=O)[O-])s1 | inactive: 0.98
CCCCSc1nnc(C2CCN(C(=O)OC(C)(C)C)CC2)o1 | inactive: 0.921
CC1(C)CC2(CC(C)(C)NC(=O)N2)NC(=O)N1 | inactive: 0.956
C=CCn1c(-c2ccccc2Cl)nn(C2CCC3OCC2O3)c1=S (stereo not given) | inactive: 0.664
c1ccc(Nc2nc3nonc3nc2Nc2ccccc2)cc1 | inactive: 0.782

Reprinted at random: three records from the list.
SMILES | cell-surface Lgr5 expression
Cc1ccsc1/C=N/Nc1nnc(C)c(=O)[nH]1 | inactive: 1.28
C/C(CC(C)C)=N\Nc1ccc([N+](=O)[O-])cc1[N+](=O)[O-] | inactive: 1.06
Nc1nnc(SC2CCCC2)s1 | inactive: 1.06
